# Results are given in words; binding and its absence hold for the method and conditions named. Some binding calls cover weakened binding; strength is not graded here. Where a sequence is shown, tags or fusion partners need not be part of it.
# Chains of the proteins cited; added tags and fusions are not shown. Residues count along the entry.
# UniProt P01589, residues 22-272: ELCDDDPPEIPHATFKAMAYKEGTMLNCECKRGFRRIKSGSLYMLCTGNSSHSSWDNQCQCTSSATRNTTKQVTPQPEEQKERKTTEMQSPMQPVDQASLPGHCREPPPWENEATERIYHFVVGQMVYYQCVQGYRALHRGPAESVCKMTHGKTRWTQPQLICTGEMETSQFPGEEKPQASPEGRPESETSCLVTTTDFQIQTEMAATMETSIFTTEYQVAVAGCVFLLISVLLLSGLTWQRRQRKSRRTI
# Target: SNAPf-IL-2Rα stably expressed in HeLa cells (IL-2Rα fused to an N-terminal SNAPf-tag) (UniProt P01589)
# Test: dual-colour single-molecule TIRF microscopy on live HeLa cells, 1 nM labelled ligand
binder,measurement,value
"Dy547P1/Dy647P1 conjugated ybbR-Switch-2 (N-terminal MBP and YbbR tag, C-terminal histidine tag, from E. coli) (ligand, not shown: large carriers; small tags and cut ends, Dy547P1 or Dy647P1 dye conjugated (ybbR tag)) DSLEFIASKLAAPTSSSTKKTQLQLEHLLLDLQMILNGINNYKNPKLHLMLSYGFYMPKKATELKHLQCLEEELKPLEEVLNLAQSKNFHLRPRDLISNINVIVLELKGSETTFMCEYADETATIVEFLNRWITFCQSIIS",binding,binds

# Reference: patent publication US20240352084A1
